# This is one part of the list.
# The chains behind the UniProt entries cited, without tags or fusion partners. Where a name states a change or a piece, a line headed by the entry shows the natural chain unless it says otherwise.
# UniProt Q01082, whole entry, looked up: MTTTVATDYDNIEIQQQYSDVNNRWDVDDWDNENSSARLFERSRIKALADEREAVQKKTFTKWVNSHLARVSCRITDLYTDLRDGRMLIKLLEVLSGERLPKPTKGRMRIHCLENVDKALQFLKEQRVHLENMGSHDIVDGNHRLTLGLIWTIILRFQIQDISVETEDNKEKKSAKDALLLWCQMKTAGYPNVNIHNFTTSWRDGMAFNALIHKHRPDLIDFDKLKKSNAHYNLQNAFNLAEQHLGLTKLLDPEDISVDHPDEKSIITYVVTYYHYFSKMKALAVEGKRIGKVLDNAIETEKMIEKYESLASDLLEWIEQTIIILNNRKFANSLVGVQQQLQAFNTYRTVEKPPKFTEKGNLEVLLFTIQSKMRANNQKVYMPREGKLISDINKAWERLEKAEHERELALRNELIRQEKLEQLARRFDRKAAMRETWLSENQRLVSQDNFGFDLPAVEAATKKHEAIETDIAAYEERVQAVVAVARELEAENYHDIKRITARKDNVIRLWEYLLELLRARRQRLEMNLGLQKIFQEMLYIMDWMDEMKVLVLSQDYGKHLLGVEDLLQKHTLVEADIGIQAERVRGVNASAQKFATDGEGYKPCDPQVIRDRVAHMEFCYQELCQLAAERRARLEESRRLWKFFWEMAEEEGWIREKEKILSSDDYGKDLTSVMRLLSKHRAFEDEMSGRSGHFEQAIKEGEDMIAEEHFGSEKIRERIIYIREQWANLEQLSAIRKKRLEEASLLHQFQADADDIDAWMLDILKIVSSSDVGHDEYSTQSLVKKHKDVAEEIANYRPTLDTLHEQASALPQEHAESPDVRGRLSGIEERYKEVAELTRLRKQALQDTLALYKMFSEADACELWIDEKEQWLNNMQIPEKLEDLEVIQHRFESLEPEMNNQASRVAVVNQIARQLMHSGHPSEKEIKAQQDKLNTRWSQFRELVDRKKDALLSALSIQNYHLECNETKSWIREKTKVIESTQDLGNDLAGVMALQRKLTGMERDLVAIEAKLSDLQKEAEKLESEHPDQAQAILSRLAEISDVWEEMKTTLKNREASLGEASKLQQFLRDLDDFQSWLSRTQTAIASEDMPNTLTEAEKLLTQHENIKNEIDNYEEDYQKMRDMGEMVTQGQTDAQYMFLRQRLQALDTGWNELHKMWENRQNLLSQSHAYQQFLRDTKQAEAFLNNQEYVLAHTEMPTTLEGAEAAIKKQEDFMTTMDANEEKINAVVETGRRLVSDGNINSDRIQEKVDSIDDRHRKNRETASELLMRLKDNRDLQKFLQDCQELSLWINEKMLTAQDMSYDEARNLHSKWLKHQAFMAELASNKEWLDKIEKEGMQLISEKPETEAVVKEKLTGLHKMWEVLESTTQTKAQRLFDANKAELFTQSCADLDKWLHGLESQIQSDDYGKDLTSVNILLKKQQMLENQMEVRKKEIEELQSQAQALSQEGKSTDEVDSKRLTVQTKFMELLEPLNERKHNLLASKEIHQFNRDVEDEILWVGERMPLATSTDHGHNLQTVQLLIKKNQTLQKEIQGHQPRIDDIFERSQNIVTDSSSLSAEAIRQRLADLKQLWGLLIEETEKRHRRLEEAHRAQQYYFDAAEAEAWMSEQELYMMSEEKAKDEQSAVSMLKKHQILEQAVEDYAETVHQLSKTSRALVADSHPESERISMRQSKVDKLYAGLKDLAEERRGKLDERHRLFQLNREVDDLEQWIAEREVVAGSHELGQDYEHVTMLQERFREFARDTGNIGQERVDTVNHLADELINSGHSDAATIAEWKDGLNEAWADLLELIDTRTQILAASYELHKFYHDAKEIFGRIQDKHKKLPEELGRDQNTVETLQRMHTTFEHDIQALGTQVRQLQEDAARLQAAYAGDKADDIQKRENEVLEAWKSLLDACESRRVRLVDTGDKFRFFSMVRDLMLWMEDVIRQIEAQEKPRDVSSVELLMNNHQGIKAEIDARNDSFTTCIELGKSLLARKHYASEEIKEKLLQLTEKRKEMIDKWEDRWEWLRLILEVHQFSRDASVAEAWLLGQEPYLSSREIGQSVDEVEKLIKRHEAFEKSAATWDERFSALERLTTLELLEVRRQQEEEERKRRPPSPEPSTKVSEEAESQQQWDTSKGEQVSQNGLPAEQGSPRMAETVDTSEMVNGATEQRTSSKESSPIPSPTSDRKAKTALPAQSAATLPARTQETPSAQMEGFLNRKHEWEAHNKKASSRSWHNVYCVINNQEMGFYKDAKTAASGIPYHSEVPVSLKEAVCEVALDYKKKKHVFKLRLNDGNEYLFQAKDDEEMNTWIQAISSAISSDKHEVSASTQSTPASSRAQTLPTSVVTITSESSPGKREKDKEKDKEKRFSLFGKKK
# UniProt Q11206: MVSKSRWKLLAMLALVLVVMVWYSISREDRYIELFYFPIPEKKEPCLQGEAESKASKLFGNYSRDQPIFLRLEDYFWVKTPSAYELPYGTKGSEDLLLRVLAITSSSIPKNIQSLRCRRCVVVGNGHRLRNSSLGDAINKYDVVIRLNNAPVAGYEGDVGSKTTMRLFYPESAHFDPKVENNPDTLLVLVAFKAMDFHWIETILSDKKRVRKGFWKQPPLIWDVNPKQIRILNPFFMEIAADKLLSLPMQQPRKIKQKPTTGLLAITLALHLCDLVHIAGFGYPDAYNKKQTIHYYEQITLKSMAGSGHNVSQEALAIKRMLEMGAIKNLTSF
# UniProt Q9Y6N5: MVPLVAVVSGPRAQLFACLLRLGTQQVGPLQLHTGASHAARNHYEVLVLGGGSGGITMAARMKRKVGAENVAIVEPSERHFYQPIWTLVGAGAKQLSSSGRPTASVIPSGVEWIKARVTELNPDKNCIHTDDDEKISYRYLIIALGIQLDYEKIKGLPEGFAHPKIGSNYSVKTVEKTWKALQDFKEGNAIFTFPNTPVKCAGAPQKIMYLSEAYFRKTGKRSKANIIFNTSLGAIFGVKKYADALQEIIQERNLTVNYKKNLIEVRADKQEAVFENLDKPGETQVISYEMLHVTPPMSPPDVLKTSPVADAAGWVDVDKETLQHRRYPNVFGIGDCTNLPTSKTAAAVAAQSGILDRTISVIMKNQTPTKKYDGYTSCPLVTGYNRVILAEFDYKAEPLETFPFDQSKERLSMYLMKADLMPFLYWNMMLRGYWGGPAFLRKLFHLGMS
# UniProt P81877: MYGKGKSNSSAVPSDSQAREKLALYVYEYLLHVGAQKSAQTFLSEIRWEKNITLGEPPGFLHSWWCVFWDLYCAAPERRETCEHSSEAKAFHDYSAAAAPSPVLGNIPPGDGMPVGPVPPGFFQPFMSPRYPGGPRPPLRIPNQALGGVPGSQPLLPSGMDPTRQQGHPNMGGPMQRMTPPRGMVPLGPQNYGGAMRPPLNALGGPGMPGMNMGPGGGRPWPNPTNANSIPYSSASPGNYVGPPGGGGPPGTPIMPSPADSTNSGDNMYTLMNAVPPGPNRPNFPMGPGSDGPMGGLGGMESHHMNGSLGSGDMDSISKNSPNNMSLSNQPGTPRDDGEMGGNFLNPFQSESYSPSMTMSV
# UniProt Q9H040: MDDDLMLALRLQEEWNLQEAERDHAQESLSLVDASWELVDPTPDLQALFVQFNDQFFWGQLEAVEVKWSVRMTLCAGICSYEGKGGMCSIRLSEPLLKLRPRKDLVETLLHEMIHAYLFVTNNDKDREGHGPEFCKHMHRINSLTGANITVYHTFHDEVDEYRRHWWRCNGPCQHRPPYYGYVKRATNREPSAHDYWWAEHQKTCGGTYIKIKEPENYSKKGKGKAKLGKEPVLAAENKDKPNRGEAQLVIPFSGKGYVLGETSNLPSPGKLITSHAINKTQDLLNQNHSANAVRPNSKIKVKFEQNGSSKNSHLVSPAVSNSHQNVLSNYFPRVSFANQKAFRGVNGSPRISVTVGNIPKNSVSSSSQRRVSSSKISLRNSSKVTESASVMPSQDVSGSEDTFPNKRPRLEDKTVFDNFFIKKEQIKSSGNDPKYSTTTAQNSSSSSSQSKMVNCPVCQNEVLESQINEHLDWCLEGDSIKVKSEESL
# UniProt Q68D10: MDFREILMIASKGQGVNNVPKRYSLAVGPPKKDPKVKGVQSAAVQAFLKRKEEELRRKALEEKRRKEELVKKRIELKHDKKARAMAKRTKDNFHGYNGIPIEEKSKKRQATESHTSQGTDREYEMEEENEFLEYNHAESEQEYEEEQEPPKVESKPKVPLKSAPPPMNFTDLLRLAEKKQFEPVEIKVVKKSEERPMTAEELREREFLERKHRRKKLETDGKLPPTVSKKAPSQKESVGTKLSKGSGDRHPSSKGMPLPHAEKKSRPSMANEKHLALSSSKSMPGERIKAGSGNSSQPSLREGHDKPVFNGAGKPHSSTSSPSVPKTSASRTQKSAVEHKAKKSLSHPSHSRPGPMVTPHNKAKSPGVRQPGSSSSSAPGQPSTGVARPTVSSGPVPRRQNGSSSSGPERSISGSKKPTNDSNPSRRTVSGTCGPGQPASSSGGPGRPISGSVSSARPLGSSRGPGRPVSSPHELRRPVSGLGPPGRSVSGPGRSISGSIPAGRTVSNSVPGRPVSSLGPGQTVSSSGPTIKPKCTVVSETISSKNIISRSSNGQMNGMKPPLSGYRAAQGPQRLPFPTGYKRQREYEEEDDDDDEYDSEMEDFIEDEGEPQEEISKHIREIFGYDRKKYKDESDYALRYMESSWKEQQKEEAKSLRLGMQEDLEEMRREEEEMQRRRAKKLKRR
# UniProt Q16384, whole entry, looked up: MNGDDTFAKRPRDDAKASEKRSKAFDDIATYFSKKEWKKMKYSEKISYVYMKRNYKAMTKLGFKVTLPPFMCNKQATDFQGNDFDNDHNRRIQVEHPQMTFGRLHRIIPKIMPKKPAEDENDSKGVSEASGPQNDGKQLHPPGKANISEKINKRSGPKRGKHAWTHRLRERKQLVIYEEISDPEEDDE
# UniProt Q9UH36: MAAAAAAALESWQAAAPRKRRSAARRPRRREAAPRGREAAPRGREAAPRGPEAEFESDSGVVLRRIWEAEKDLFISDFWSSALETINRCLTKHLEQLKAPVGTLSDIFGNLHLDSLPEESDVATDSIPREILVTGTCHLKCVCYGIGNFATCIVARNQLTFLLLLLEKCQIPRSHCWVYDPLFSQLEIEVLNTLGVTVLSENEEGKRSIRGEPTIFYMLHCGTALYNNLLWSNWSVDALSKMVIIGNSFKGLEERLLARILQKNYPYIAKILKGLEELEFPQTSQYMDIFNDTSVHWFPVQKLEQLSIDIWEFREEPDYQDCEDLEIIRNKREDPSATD
# UniProt P49675, whole entry, looked up: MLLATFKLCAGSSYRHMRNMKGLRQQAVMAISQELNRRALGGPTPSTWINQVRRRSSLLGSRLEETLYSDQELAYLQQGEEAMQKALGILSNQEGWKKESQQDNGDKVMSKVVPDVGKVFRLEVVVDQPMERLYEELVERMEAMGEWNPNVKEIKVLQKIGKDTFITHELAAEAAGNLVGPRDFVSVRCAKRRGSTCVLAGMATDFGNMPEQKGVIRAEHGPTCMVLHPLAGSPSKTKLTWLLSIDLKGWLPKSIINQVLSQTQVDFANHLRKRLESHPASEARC
# UniProt Q9NSC7: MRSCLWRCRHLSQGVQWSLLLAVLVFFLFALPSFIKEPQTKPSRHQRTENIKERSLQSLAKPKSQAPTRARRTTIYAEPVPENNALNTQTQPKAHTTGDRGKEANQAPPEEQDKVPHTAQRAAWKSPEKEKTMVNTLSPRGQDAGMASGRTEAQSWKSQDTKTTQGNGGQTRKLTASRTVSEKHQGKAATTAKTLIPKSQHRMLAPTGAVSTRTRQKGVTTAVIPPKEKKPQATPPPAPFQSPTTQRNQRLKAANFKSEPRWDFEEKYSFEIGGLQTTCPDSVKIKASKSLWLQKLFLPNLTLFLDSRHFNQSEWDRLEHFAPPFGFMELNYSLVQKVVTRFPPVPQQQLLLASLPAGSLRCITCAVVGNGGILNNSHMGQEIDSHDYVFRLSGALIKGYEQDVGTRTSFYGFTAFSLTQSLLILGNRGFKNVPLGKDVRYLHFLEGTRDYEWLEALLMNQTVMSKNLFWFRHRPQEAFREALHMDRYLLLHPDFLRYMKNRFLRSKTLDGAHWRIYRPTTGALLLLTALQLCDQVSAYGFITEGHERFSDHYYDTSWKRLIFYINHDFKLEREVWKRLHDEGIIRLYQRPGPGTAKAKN
# UniProt O75177, whole entry, looked up: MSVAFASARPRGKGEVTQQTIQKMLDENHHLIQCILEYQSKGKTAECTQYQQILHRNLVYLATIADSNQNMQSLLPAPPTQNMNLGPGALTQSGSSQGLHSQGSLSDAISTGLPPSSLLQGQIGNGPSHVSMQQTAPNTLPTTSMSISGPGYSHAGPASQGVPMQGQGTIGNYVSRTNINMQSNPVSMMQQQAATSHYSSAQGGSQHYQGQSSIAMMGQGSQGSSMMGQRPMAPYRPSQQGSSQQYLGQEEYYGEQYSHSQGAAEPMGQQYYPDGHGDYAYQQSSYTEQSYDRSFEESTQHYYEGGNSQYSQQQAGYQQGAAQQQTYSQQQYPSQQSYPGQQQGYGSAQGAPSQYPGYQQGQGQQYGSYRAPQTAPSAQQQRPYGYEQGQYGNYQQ
# Compound: C[C@H](Nc1ncnc2nc[nH]c12)c1cc2cccc(Cl)c2c(=O)n1-c1ccccc1 [duvelisib]
# Test: log2 fold change, soluble protein after heating vs DMSO (PISA); higher = thermal stabilisation; K562 lysate, 10 uM; active = over 0.2 and 3.5 SD of the protein, either way, in both replicates (recomputed)
# Summary of the method: (§1)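 Quantification was by TMTpro 16plex LC-MS/MS with equalised channel sums, applied to the supernatant after 21,000xg for 90 min. Samples were crude K562 extract at 1 mg/mL protein in PBS pH 7.4 with 1 mM MgCl2, treated with 10 μM compound for 30 min, heated for 3 min across 48°C-58°C, pooled and brought to 0.5% NP-40 at 4°C. Values are log-two fold changes in thermal stability relative to solvent controls, from duplicates.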
row,Target,log2 fold change
1,SPTBN1 isoform 3 (UniProt Q01082),inactive: 0.092
2,STARD8 isoform 2 (UniProt Q92502),inactive: 0.013
3,ST3GAL4 isoform 4 (UniProt Q11206),inactive: -0.071
4,SQOR (UniProt Q9Y6N5),inactive: -0.047
5,SSBP2 (UniProt P81877),inactive: -0.122
6,STAP1 (UniProt Q9ULZ2),inactive: 0.078
7,SPRTN (UniProt Q9H040),inactive: -0.124
8,SPOUT1 (UniProt Q5T280),inactive: 0.039
9,SPTY2D1 (UniProt Q68D10),inactive: 0.036
10,STAM (UniProt A6NMU3),inactive: -0.129
11,SSX1 (UniProt Q16384),inactive: 0.061
12,SRRD (UniProt Q9UH36),inactive: 0.031
13,STAR (UniProt P49675),inactive: 0.017
14,SREBF1 isoform 4 (UniProt P36956),inactive: -0.037
15,ST6GALNAC1 (UniProt Q9NSC7),inactive: 0.028
16,ST3GAL1 (UniProt Q11201),inactive: 0.1

# Compound: Cc1cc(Nc2cc(CN3CCOCC3)c3nc(C)c(Cc4ccc(Cl)cc4F)n3n2)n[nH]1 [gandotinib]
# Test: as above
# Summary of the method: as §1
row,Target,log2 fold change
1,ST3GAL4 isoform 4 (UniProt Q11206),inactive: 0.173
2,SSBP2 (UniProt P81877),inactive: -0.044
3,SRCIN1 (UniProt Q9C0H9),inactive: -0.011
4,STAU1 isoform 3 (UniProt O95793),inactive: 0.112
5,STARD4 (UniProt Q96DR4),inactive: 0.1
6,SS18L1 (UniProt O75177),inactive: -0.008
7,SSBP4 (UniProt U3KPY3),inactive: 0.171
8,SPIN4 (UniProt Q56A73),inactive: 0.053
9,SPTY2D1 (UniProt Q68D10),inactive: 0.169
10,SSX1 (UniProt Q16384),inactive: 0.282
11,SSX2IP (UniProt Q9Y2D8),inactive: 0.147
12,SPRYD3 (UniProt Q8NCJ5),inactive: 0.04
13,SRRD (UniProt Q9UH36),inactive: -0.003
14,STAR (UniProt P49675),inactive: 0.156
15,ST6GALNAC1 (UniProt Q9NSC7),inactive: -0.099
16,SPC24 (UniProt K7ESQ2),inactive: 0

# Compound: Cc1cc(Nc2cc(N3CCN(C)CC3)nc(Sc3ccc(NC(=O)C4CC4)cc3)n2)n[nH]1 [tozasertib]
# Test: as above
# Summary of the method: as §1
row,Target,log2 fold change
1,SPTBN1 isoform 3 (UniProt Q01082),inactive: -0.156
2,STARD8 isoform 2 (UniProt Q92502),inactive: 0.018
3,ST3GAL4 isoform 4 (UniProt Q11206),inactive: 0.023
4,SPICE1 (UniProt Q8N0Z3),inactive: -0.047
5,SQOR (UniProt Q9Y6N5),inactive: 0.046
6,SSBP2 (UniProt P81877),inactive: 0.153
7,SRCIN1 (UniProt Q9C0H9),inactive: 0.015
8,SPRTN (UniProt Q9H040),inactive: -0.085
9,STARD4 (UniProt Q96DR4),inactive: 0.021
10,SPOUT1 (UniProt Q5T280),inactive: -0.054
11,STAM (UniProt A6NMU3),inactive: 0.025
12,SSX1 (UniProt Q16384),inactive: 0.049
13,SPTAN1 isoform 3 (UniProt Q13813),inactive: -0.044
14,SSX2IP (UniProt Q9Y2D8),inactive: -0.063
15,STAR (UniProt P49675),inactive: 0.063
16,ST6GALNAC1 (UniProt Q9NSC7),inactive: 0.005
17,SPC24 (UniProt K7ESQ2),inactive: -0.008

# Compound: Cc1ccc(-n2nc(C(C)(C)C)cc2NC(=O)Nc2ccc(OCCN3CCOCC3)c3ccccc23)cc1 [doramapimod]
# Test: as above
# Summary of the method: as §1
row,Target,log2 fold change
1,SPTBN1 isoform 3 (UniProt Q01082),inactive: -0.001
2,STARD8 isoform 2 (UniProt Q92502),inactive: -0.004
3,ST3GAL4 isoform 4 (UniProt Q11206),inactive: 0.008
4,SQOR (UniProt Q9Y6N5),inactive: 0.046
5,SSBP2 (UniProt P81877),inactive: -0.041
6,STAT1 isoform 2 (UniProt P42224),inactive: -0.007
7,STAU1 isoform 3 (UniProt O95793),inactive: 0.269
8,SS18L1 (UniProt O75177),inactive: 0
9,SPTY2D1 (UniProt Q68D10),inactive: 0.227
10,"SRGAP2, A0A075B7B5",inactive: -0.028
11,STAM (UniProt A6NMU3),inactive: -0.056
12,SSX1 (UniProt Q16384),inactive: 0.118
13,SPTAN1 isoform 3 (UniProt Q13813),inactive: -0.05
14,SPRYD3 (UniProt Q8NCJ5),inactive: 0.055
15,STAB1 (UniProt Q9NY15),inactive: 0.286
16,SRRD (UniProt Q9UH36),inactive: -0.053
17,STAR (UniProt P49675),inactive: 0.019
18,SREBF1 isoform 4 (UniProt P36956),inactive: -0.043
19,ST6GALNAC1 (UniProt Q9NSC7),inactive: -0.008
20,ST3GAL1 (UniProt Q11201),inactive: -0.048
21,SPC24 (UniProt K7ESQ2),inactive: 0.125

# From the supplement of paper PMC10849652
